Laboratory results as given in publication PMC4141641.

Protein sequences, listed by entry. Tags and fused reporters are not part of them.
UniProt P11940: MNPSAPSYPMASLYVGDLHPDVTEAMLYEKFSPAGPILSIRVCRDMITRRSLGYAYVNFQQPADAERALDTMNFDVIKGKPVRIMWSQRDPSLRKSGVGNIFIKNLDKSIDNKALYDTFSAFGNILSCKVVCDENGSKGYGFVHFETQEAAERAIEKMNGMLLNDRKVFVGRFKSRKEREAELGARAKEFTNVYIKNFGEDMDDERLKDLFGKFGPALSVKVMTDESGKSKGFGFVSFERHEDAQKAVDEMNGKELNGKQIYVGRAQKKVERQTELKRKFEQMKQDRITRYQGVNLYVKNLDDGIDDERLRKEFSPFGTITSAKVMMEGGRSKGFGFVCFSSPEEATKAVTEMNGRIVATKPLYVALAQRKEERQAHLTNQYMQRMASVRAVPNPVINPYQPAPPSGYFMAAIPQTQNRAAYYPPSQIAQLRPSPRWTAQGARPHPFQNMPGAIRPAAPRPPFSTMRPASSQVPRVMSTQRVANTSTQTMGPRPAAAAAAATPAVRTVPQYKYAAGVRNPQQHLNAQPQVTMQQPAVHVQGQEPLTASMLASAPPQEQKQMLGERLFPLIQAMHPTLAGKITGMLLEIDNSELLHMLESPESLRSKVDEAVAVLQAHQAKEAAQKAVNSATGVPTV
UniProt P17844: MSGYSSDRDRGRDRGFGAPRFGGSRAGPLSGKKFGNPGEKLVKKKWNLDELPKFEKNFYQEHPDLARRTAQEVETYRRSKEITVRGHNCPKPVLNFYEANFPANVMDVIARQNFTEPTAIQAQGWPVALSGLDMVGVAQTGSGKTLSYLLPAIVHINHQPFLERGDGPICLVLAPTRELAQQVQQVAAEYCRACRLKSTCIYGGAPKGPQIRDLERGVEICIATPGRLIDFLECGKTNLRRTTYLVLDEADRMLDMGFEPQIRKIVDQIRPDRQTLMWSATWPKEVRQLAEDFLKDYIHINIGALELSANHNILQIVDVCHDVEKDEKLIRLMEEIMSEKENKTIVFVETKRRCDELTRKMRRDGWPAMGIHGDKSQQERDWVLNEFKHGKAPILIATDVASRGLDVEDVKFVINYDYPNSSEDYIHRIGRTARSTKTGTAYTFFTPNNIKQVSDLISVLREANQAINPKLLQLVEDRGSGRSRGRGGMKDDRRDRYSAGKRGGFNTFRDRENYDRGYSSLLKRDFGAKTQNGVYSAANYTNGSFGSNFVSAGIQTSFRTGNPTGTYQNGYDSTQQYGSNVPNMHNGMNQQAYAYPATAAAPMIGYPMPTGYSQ
UniProt P13010: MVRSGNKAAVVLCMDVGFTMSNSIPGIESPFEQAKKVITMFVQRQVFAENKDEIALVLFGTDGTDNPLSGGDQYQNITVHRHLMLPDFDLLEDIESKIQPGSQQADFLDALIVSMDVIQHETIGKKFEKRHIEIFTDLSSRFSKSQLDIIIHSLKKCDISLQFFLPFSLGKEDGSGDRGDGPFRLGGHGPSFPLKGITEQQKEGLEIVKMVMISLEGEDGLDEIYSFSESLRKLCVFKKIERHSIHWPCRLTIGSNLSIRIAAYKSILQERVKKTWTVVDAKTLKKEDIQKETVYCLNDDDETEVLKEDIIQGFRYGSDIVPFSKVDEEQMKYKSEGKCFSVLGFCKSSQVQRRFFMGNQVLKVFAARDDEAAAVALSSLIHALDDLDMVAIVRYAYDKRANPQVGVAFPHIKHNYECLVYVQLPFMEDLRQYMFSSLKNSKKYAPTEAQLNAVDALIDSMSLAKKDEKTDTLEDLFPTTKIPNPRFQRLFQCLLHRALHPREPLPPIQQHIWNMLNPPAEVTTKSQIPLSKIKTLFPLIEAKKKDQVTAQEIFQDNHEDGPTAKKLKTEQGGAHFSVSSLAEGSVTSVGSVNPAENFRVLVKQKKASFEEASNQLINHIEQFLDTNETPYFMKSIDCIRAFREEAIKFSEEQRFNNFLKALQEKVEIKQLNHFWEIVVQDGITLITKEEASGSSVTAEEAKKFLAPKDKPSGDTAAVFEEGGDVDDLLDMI
UniProt P09874: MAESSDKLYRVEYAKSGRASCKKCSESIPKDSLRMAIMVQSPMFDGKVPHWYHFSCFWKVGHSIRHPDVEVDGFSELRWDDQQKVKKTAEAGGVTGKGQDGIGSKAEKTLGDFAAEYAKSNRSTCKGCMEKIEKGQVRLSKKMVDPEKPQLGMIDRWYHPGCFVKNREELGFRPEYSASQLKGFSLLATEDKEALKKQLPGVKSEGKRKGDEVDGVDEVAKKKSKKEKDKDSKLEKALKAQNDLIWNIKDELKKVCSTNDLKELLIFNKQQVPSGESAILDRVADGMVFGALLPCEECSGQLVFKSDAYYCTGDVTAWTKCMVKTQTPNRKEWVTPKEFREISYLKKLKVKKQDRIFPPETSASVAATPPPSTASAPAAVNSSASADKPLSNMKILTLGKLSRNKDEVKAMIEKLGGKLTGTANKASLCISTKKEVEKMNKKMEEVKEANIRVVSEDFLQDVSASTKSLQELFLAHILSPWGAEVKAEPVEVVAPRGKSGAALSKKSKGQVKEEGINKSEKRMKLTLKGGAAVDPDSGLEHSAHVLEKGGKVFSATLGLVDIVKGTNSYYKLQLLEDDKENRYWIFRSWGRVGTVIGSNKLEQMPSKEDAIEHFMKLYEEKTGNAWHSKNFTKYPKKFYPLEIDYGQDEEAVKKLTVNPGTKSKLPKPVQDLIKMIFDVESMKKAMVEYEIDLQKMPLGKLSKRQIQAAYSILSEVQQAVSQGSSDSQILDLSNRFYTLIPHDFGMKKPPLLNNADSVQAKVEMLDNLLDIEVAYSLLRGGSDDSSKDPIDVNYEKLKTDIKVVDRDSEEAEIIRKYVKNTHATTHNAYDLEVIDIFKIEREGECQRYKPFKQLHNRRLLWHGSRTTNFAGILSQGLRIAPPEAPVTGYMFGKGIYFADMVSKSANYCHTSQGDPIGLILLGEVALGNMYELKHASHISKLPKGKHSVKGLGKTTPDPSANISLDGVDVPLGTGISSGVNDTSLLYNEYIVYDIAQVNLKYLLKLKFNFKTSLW
UniProt P12956: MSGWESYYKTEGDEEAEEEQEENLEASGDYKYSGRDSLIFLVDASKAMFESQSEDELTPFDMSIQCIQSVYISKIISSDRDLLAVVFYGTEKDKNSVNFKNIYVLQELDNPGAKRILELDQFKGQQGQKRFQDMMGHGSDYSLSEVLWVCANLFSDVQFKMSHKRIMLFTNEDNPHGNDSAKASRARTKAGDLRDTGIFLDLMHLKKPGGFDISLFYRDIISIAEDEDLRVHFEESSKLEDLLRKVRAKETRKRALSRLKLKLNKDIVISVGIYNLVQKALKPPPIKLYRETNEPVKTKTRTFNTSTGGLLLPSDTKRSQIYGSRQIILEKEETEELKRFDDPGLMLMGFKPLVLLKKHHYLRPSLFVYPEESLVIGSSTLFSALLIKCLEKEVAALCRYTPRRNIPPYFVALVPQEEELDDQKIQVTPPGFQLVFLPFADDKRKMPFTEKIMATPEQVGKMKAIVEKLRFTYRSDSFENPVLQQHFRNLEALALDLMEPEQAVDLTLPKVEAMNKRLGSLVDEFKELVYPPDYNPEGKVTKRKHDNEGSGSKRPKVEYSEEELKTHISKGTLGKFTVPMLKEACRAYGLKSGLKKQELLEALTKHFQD
UniProt Q12905: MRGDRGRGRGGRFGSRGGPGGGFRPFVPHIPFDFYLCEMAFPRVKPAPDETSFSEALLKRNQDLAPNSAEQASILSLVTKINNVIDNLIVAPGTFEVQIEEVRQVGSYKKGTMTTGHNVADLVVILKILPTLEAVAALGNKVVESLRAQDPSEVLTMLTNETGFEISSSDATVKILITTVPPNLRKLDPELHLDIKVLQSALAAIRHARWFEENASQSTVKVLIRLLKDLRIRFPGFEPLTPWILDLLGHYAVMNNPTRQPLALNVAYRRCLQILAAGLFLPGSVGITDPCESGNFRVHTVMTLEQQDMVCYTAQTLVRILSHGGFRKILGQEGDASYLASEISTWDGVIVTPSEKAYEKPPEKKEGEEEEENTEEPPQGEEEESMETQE
UniProt P11142: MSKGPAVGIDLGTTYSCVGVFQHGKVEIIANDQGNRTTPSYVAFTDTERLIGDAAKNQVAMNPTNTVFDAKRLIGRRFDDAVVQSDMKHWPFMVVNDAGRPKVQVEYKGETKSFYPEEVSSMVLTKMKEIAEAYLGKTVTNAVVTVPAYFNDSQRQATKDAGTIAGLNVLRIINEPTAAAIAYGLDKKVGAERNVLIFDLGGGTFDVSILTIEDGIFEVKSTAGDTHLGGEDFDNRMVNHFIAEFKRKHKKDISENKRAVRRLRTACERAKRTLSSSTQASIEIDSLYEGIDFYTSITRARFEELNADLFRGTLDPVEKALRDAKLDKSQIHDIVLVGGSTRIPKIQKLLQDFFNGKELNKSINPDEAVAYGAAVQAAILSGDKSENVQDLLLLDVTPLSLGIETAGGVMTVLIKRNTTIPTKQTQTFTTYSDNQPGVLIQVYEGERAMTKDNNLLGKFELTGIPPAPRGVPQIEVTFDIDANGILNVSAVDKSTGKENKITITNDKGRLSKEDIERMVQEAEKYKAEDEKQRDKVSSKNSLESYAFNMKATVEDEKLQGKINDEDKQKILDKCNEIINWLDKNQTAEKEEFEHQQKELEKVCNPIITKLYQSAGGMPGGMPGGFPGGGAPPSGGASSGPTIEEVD

B1: chromatin and nuclear assembly regulator BANF1 (protein, UniProt O75531 1-89)
chain: MTTSQKHRDFVAEPMGEKPVGSLAGIGEVLGKKLEERGFDKAYVVLGQFLVLKKDEDLFREWLKDTCGANAKQSRDCFGCLREWCDAFL

Legend:
[1] = target: FLAG-NKX3.1 (human) (UniProt Q99801); assay: affinity purification with mass spectrometry; FLAG-NKX3.1 from transfected LNCaP lysate (50 mM Tris-HCl pH 7.4, 150 mM NaCl, 1% Triton X 100; MG132 4 h before lysis) on anti-FLAG M2 magnetic beads, 4 h at 4°C, eluted with triple FLAG peptide; LC-MS/MS; four purifications against mock (empty vector)
[2] = target: FLAG-NKX3.1 (human) (UniProt Q99801); assay: as above; remark: listed apart in the source

Row | Molecule | binding [1] | binding [2]
1 | PABPC1 (from UniProt P11940 1-636) | binds | –
2 | RNA helicase DDX5 (from UniProt P17844 1-614) (enzyme) | binds | –
3 | XRCC5/Ku80 (from UniProt P13010 1-732) | binds | –
4 | poly(ADP) ribose polymerase (PARP1) (from UniProt P09874 1-1014) (enzyme) | binds | –
5 | XRCC6/Ku70 (from UniProt P12956 1-609) | binds | –
6 | interleukin enhancer binding factor 2 (ILF2/NFAT 45 kDa) (from UniProt Q12905 1-390) | binds | –
7 | heat shock protein HSPA8 (from UniProt P11142 1-646) | binds | –
8 | B1 | – | binds

Like-named read-outs stand apart in the source and are kept apart here. Results are given in words; binding and its absence hold for the method and conditions named. In cells and extracts the contact can be indirect. Here binding means that the protein was enriched with, or labelled near, the bait; the list need not be complete.
